Test results published in PubChem BioAssay AID1347423 (Functional Genomics Laboratory (NCATS/FGL), 2020).
The campaign covered roughly 52,000 sequences. About 210 (0.4%) were called active.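 How the source made its calls: active means gene whose silencing raises cell survival under the drug, median off-target-corrected z-score across its silencing RNAs 2 or more; inactive means the rest.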 The list shows a part of the results.

test: Resistance to Poly (ADP-Ribose) Polymerase inhibitor: Gene Identification via Genome-wide siRNA Screen; details: mouse BRCA2 R2336H ES cells, olaparib, CellTiter-Glo viability; hits give high values
Procedure, shortened: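 Genome-wide siRNA screen (3 siRNAs/gene, 20 nM) in mouse ES cells carrying hypomorphic BRCA2 R2336H; olaparib 500 nM added 48 h post-transfection, CellTiter-Glo viability 72 h later. Normalized to plate-median negative control; MAD z-scores, gene median, seed-adjusted.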

Sequence | z-score
GGAGAAUCCUUCCUUGUUUTT against Il2rg | inactive: 0.522
CCCUCCACAGAUGAACACCTT against Lgals4 | inactive: 0.139
AAAGGACUGCCUAAGACAATT against V1rh11 | inactive: -0.00751
GGAAAACAUCCCUUUCGCATT against 1-Sep | inactive: 0.505
CCCAAAAUACAUCAUCAAUTT against Psmc2 | inactive: 0.486
CGCCAGGUAGUGAUAUCAATT against AI427100 | inactive: 2.53
GGAAUGAGAAGGAAAAGGUTT against Arpc4 | inactive: 0.84
GCUCUGUGCACUUAAGAGATT against Mbd3l2 | inactive: -0.203
GGAUGGCUCUAUGCCAAGATT against Mrps27 | inactive: -0.0945
GCACCUCUCUACAUUACUGTT against MGC30332 | inactive: -2.75
CCUAGAGGAAGACUUAUGUTT against Fhl2 | inactive: -0.471
GGAUCACUCCAGGAAGCAATT against Pdlim3 | inactive: -1.66
GGGUCAAUGGUAUUCCCAGTT against 4932411K12 | inactive: -0.177
GGCAGCGAAAAGUCAGAUGTT against Sars1 | inactive: -1.51
CCUGUCAGUCCAAUCAAUUTT against Ldlr | inactive: 0.973
GCACUCAAGACCUGUAUGATT against Cldn18 | inactive: 0.862
GGUUCUGUACCAAUGAGUCTT against 2310007H09Rik | inactive: -0.142
GGUUGUUUGGAAAUCAAAUTT against Crisp3 | inactive: -1.31
GGCAUGACUGGACUGAAAATT against Ythdf3 | inactive: -1.81
GGACAUAAUUCUUUCCGUGTT against 2410075D05Rik | inactive: -0.0671
GUUCCUCUUCGUCAGCACATT against Gja4 | inactive: 0.717
GGGUUCAGCAAUUUCAGCATT against Zfp509 | inactive: 0.362

Sequence | z-score
GCUUAUGAUGAACAAGCCCTT against Aplra1 | inactive: 0.51
GCUGCUUCCUCCUCAUUCUTT against Olfr934 | inactive: 1.26
CCCAUGGAAUGAAAACAACTT against A430041E03 | inactive: 1.18
GCAGAACUCUGGAAUCAAGTT against Perld1 | inactive: -1.34
CCCUCUUAAGACAUGCAGGTT against Cltb | inactive: 0.432
GGUCAUUGAAGUGCAAGCCTT against 4931406C07Rik | inactive: 0.0525
GCCUUUUCAAAACACUUUCTT against 8430426H19Rik | inactive: 1.12
GGAAGUGGAAUUCUUCAGUTT against Rap1gds1 | inactive: 0.97
GUUUCCUUGUGCUAAUGUUTT against Olfr1199 | inactive: 1.03
GGGCAAAGUUGAAUAUCUGTT against Cbx7 | inactive: -0.172
GCCUUUAAUACAUAGGCUUTT against Cxcl9 | inactive: 0.149
GGGAUGAGAACAAGAAUGUTT against Moap1 | inactive: -0.998
GCUCAGAGAUUAUGGCAUCTT against 3300001G02Rik | inactive: 0.273
GGGAGUGAAUGUUUCACAUTT against C030022K24Rik | inactive: 0.478
CCAUAUUAACUACAACACCTT against Lrrc4 | inactive: 0.444
GGAGGCUGCAAUAGAGGAGTT against 2010016F14Rik | inactive: 0.157
CCAUAAGUGAGCUUGAUGUTT against Sipa1l1 | inactive: 0.781
CGGCCGUCAGCUUCUUUUATT against Olfr283 | inactive: 0.841
GGUCAAGGUAGGCAAUGAATT against Stau2 | inactive: -2.43
CCGUAUUGUCCAUUGCCUCTT against Olfr577 | inactive: -1.94
GGUGACCACAGACAACAAGTT against Glra4 | inactive: -0.136
GGUUUUCCUGCAUUUUUUATT against Rhou | inactive: 0.404

Three records drawn at random from the list so far:
Sequence | z-score
CCAUAUUAACUACAACACCTT against Lrrc4 | inactive: 0.444
GGUCAAGGUAGGCAAUGAATT against Stau2 | inactive: -2.43
GCCUUUAAUACAUAGGCUUTT against Cxcl9 | inactive: 0.149

(listing goes on)

Sequence | z-score
GGUGGAGAAGAAAUCUAAGTT against Eif4g1 | inactive: -1.57
GGGAUCAGAGGAAUGUAUCTT against 1700056O17Rik | inactive: -0.692
GGGCUACCUCAGUUUAAACTT against Spic | inactive: 0.0705
GGAGAGUACUAAAUUUAAGTT against 4833418A01Rik | inactive: 0.0243
GGUAGAUAUCAAUAAAGGATT against Olfr794 | inactive: -0.704
GGCAUAGCAUGAAUGGACGTT against 1200020A08Rik | inactive: -0.191
CCAAAUUAUCACCCUGUUCTT against Olfr763 | inactive: 1.01
CACUCAAAGUUAUAUCAAGTT against Nalp-epsilon | inactive: 0.922
GCAUAUGGCUUAACACAAATT against Tbc1d15 | inactive: 0.531
GGAUGAAGCCUUCAUCAGGTT against Adcy6 | inactive: 1.36
GGAGGAACUCUGGCAAGCUTT against 2900036G02Rik | inactive: -1.11
GGAGGAACAUAUCAAGGAATT against 2310076O21Rik | inactive: -1.62
CCGUCUCUAUCUACCUAGGTT against Npas3 | inactive: 0.489
GGAAACCUUUCGUAUUUCATT against Cbll1 | inactive: -0.199
GGAGGAAUCAAAGGCUCCUTT against Slc39a5 | inactive: -0.868
GGCUAUGUUGCACUUUCACTT against V1re1 | inactive: 0.238
GCCUGAAGAUGAUUCGAUUTT against Gbgt1 | inactive: 0.611
CCUACACUAGAAUCCUGAATT against Olfr614 | inactive: -0.546
GGAUGGGUCAACAUUCUACTT against V1rb5 | inactive: -0.559
GCAGCUUUGAAAUUGUCCATT against Stard5 | inactive: -0.137
GGAGUUUUCUUCAACUGGGTT against Atp6v0c | inactive: 0.433
GCGCACUGAGAUUGAAGAATT against Plcd4 | inactive: -0.759
